Assay results published in PubChem BioAssay AID1487 (National Center for Advancing Translational Sciences (NCATS), 2009).
Values joined by “and” are separate entries in the source; they are usually repeats but may differ in a detail not shown here. Equal values may be shown once. Some of the results follow. The main result of the screen is listed elsewhere. These columns were measured beside it and carry no call. Compounds called inactive in the main read-out are mostly missing here. Potencies come from curve fits of mixed quality, noted in brackets.

Experiment: qHTS Assay for Modulators of Lamin A Splicing
Details: HeLa LMNA splicing GFP/RFP minigene ratio, 48 h
Procedure, shortened: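 S3 HeLa cells stably expressing lamin A-EGFP splicing minigene plus DsRed2, 600 cells/well, 48 h compound exposure at 37C. Laser-scanning cytometry; analysed as GFP (500-530 nm)/RFP (575-640 nm) total intensity ratio; 0.5% DMSO vehicle.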

[1] = measured here: RFP viability control channel
[2] = measured here: GFP splicing reporter channel

Compound | AC50 [1] | AC50 [2]
C=CCSc1nnc(NC(=O)c2cccc(S(=O)(=O)N(C)c3ccccc3)c2)s1 | 17.8 µM [rising, single point] | –
Cc1ccc(S(=O)(=O)N2CCSC2c2ccco2)cc1 (stereo not drawn) | 31.6 µM [rising, single point] | –
Cc1cc(C)cc(-n2c(SCC(=O)NC3CCCCC3)nc3c([nH]c4ccccc43)c2=O)c1 | 5.01 µM [falling, full curve] | 7.08 µM [falling, partial curve]
CC12CCC(C(=O)Nc3cccc(Cl)c3)(C(Br)C1=O)C2(C)C (stereo not drawn) | 15.8 µM [rising, single point] | 12.6 µM [rising, single point]
N#C/C(=C\c1cn(CC(=O)N2CCCC2)c2ccccc12)C(=O)NCc1ccc2c(c1)OCO2 | 12.6 µM [rising, single point] | –
COc1ccccc1OCC(=O)NC1CCCCCC1 | – | 25.1 µM [rising, single point]
CCNC(=O)CC1SC(=Nc2cccc3ccccc23)N(C)C1=O (stereo not drawn) | 12.6 µM [rising, partial curve] | 12.6 µM [rising, partial curve, poor fit]
COC(=O)C1=C(C)NC(C)=C(C(=O)OC(C)C)[C@H]1c1cccc2nonc12 | 0.000447 µM [falling, full curve, poor fit] | 0.00447 µM [falling, full curve, poor fit]
O=C(Nc1ccc(C(F)(F)F)cc1)c1csc(-c2ccncc2)n1 | 0.282 µM [falling, full curve, poor fit] | 8.91 µM [falling, partial curve]
CC(=O)N1CCN(c2ccc(NCc3ccc(C)cc3)cc2)CC1 | 28.2 µM [rising, single point] | –
O=C(COC(=O)c1ccc([N+](=O)[O-])s1)NC(c1ccccc1)c1ccccc1 | 0.794 µM [rising, single point] | 1.12 µM [rising, full curve, poor fit]
O=C(Cn1ccsc1=NC(=O)c1ccco1)c1ccccc1 | 12.6 µM [rising, partial curve, poor fit] | –
O=C(COC(=O)c1cccnc1Nc1cccc(C(F)(F)F)c1)NC1CCS(=O)(=O)C1 (stereo not drawn) | 12.6 µM [rising, partial curve] | 14.1 µM [rising, partial curve]
CCN(CC)c1ncnc2c1[nH]c1ccccc12 | 35.5 µM [rising, single point] | –
CCCSc1cc(N2CCOCC2)nc(-c2ccccc2Cl)n1 | 31.6 µM [rising, single point] | 35.5 µM [rising, single point]
Cc1ccc(C)c(-n2cc(CN3CCN(C(=O)c4ncn[nH]4)CC3)c(-c3ccccc3)n2)c1 | 35.5 µM [falling, single point] | 35.5 µM [falling, single point]
CCOC(=O)c1c(-c2ccccc2)nnn1-c1nc(OCC)nc(N2CCCCC2)n1 | 11.2 µM [rising, partial curve] | –
Cc1nn(-c2ccc(N3CCCC3)nn2)c(C)c1CCC(=O)N1CCN(c2ccccc2F)CC1 | 0.00316 µM [falling, full curve, poor fit] | –
CCNc1nc(N)nc(-c2cc(Cl)ccc2O)n1 | 20 µM [falling, partial curve, poor fit] | –
COc1ccc(CNC(=O)CCNS(=O)(=O)c2ccc3c(c2)CCCC(=O)N3)cc1 | 0.158 µM [falling, full curve] | –
CCCc1[nH]nc2c1C(c1ccc(Br)s1)C(C#N)=C(N)O2 (stereo not drawn) | 35.5 µM [falling, single point] | 17.8 µM [falling, single point]
CCC(C(=O)C(C)C(O)C(C)CCc1ccc(C)c(O)c1C(=O)O)C1OC(CC)(C2CC[C@@](O)(CC)C(C)O2)CC1C (stereo partly drawn) | 28.2 µM [falling, single point] | 5.01 µM [falling, partial curve, poor fit]
O=C(CCc1ccc(S(=O)(=O)NCCc2ccccc2)cc1)Nc1ccc2c(c1)OCCO2 | 10 µM [rising, partial curve] | –
Cc1ccc(Cl)cc1N(C)C(=O)C1CCCN(c2ncnc3onc(-c4ccc(F)cc4)c23)C1 (stereo not drawn) | 2.24 µM [rising, partial curve, poor fit] | 0.112 µM [rising, full curve, poor fit]
COc1ccc2c(c1OC)C(=O)N1N=C(c3ccc(Br)cc3)CC21 (stereo not drawn) | 20 µM [rising, partial curve, poor fit] | –
N#C/C(=C\c1ccc(-c2ccc(F)cc2)o1)C(=O)Nc1nc(-c2cccs2)cs1 | 8.91 µM [rising, partial curve] | 7.08 µM [rising, partial curve]

One compound at a time, from the list above:
C=CCSc1nnc(NC(=O)c2cccc(S(=O)(=O)N(C)c3ccccc3)c2)s1 in the list: AC50 [1]: 17.8 µM [rising, single point]
Cc1ccc(C)c(-n2cc(CN3CCN(C(=O)c4ncn[nH]4)CC3)c(-c3ccccc3)n2)c1 in the list: AC50 [1]: 35.5 µM [falling, single point]; AC50 [2]: 35.5 µM [falling, single point]
CCCSc1cc(N2CCOCC2)nc(-c2ccccc2Cl)n1 in the list: AC50 [1]: 31.6 µM [rising, single point]; AC50 [2]: 35.5 µM [rising, single point]
CC(=O)N1CCN(c2ccc(NCc3ccc(C)cc3)cc2)CC1 in the list: AC50 [1]: 28.2 µM [rising, single point]

The list goes on.

Compound | AC50 [1] | AC50 [2]
CC(C)SCc1cc(N2CCCC2)nc(-c2ccccc2)n1 | – | 35.5 µM [rising, single point]
O=C(ONC1=NCCCCC1)c1ccc([N+](=O)[O-])cc1 | 11.2 µM [rising, single point] | –
CCCn1c(CN(C)Cc2ccccc2)nc2c1c(=O)n(C)c(=O)n2C | 12.6 µM [rising, partial curve] | 8.91 µM [rising, partial curve]
Cc1cc(C)nc(Sc2ncnc3c2oc2ccccc23)n1 | – | 11.2 µM [falling, partial curve]
CCCCOC(=O)c1ccc(Nc2ncnc3c2cnn3-c2cccc(C)c2)cc1 | 0.251 µM [falling, full curve] | 0.112 µM [falling, full curve]
CCCCOc1cccc(C(=O)NC(=S)Nc2ccc(Cl)c(C(=O)O)c2)c1 | – | 0.158 µM [rising, full curve, poor fit]
c1ccc(N2CCN(c3ncccn3)CC2)cc1 | 0.0178 µM [falling, full curve, poor fit] | 0.0355 µM [falling, full curve, poor fit]
Cn1cnc([N+](=O)[O-])c1Sc1ncnc2nc[nH]c12 | 0.398 µM [rising, full curve] | 3.16 nM [falling, full curve, poor fit] and 316 nM [rising, full curve]
CC(=O)c1cccc(NC(=O)Nc2cc3sccc3n2C)c1 | 22.4 µM [rising, single point] | –
COc1cccc(N2CCN(c3ncnc4c3c(-c3ccccc3)cn4-c3ccc(F)cc3)CC2)c1 | 2.51 µM [rising, full curve] | –
CC(C)COC(=O)C1C(=O)CC(C)(O)C(C(=O)OCC(C)C)C1c1cccnc1 (stereo not drawn) | 0.0316 µM [falling, full curve, poor fit] | 1.26 µM [falling, partial curve, poor fit]
COc1ccc(C(=O)C[n+]2cc(-c3ccc(OC)cc3)n3c2CCCC3)cc1 | – | 35.5 µM [falling, partial curve]
Cc1ccn2cc(CCNS(=O)(=O)c3ccc4c(c3)CCCC4)nc2c1 | 12.6 µM [rising, partial curve] | –
Cc1cc(C)n(CC(=O)n2c3ccccc3c3ccccc32)n1 | 0.398 µM [falling, partial curve, poor fit] | –
COc1ccccc1N1CCN(c2ncnc3c2c(-c2ccccc2)cn3-c2cccc(C)c2)CC1 | 20 µM [rising, single point] | –
CCC[C@@H]1C[C@@]1(CCC)[C@@H](NP(=O)(c1ccccc1)c1ccccc1)c1ccc(C(=O)OC)cc1 | 35.5 µM [falling, single point] | –
Cc1ccc(CCNC(=O)C2CCCN(S(=O)(=O)c3c(C)noc3C)C2)cc1 (stereo not drawn) | 10 µM [rising, single point] | –
COc1cc(S(=O)(=O)N(Cc2ccccc2)CC2CCCO2)ccc1-n1cnnn1 (stereo not drawn) | – | 0.00891 µM [rising, partial curve, poor fit]
CCN1CCN(c2ncnc3c2cnn3-c2cc(Cl)ccc2C)CC1 | 20 µM [rising, partial curve, poor fit] | –
Cn1nnc2c(sc3nc(N4CCOCC4)c4c(c32)CCCC4)c1=O | 4.47 µM [rising, single point] | –
COc1cc(/C=C/C(=O)c2ccc(C)cc2)ccc1OCC#N | 15.8 µM [falling, single point] | 35.5 µM [falling, single point]
CCn1c2ccccc2c2cc(NC(=O)c3cccc(OC)c3)ccc21 | 10 µM [rising, partial curve] | –
COc1ccc(CNC(=O)c2cc(-c3cccs3)on2)cc1 | 22.4 µM [rising, single point] | 22.4 µM [rising, single point]
O=c1c(O[C@@H]2O[C@H](CO)[C@H](O)[C@H](O)[C@H]2O)c(-c2ccc(O)c(O)c2)oc2cc(O)cc(O)c12 | 28.2 µM [falling, partial curve, poor fit] | –
COc1ccc(-c2ccc(=O)n(CC(=O)Nc3ccc(OC)c(OC)c3)n2)cc1 | 1.26 µM [falling, full curve, poor fit] | –
Nc1nc(Cl)nc2c1ncn2[C@@H]1O[C@H](CO)[C@@H](O)[C@H]1O | 35.5 µM [falling, single point] and 10 µM [rising, single point] | 4.47 µM [falling, single point] and 35.5 µM [falling, single point]
